# Results as given in PubChem BioAssay AID2685 (National Center for Advancing Translational Sciences (NCATS), 2010).
# Some of the results follow. Shown are side measurements of this screen, not its main read-out; they come without a call. The list favours compounds with an active or inconclusive main result. The note in brackets gives the kind of curve behind each potency; many fits are weak.
# Experiment: qHTS Assay for Lipid Storage Modulators in Drosophila S3 Cells;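 for cell number change: cells counted by Cell Tracker Red CMTPX staining in the red channel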
# Conditions: BODIPY lipid droplet fluorescence, 18-24 h; for cell number change: measured here: cell count max response, cells fed with added oleic acid
# Procedure, shortened: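 Laser-scanning cytometry quantifies lipid droplet accumulation (500–530 nm total intensity; droplet/cell object ratio) in oleic acid-fed (400 uM added) Drosophila S3 cells treated with a concentration series. 20 uM Triacsin C defined 100% inhibition.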
# [1] = measured here: lipid fluorescence (Fed channel) AC50, cells fed with added oleic acid
# [2] = measured here: cell number channel AC50, cells fed with added oleic acid
SMILES,cell number change,AC50 [1],AC50 [2]
O=C(NC(=S)Nc1ccccc1C(F)(F)F)c1ccccc1F,-46.1%,–,–
O=C(NCCC1=CCCCC1)C(=O)NCC(c1ccco1)N1CCN(c2ccccc2F)CC1 (configuration not stated),-12.2%,"4.11 µM [rising, partial curve, poor fit]",–
CN(C)c1ccc(C(=O)NCC(c2cccs2)N2CCOCC2)cc1[N+](=O)[O-] (configuration not stated),–,"3.26 µM [rising, single point]",–
CC(=O)Oc1c(S(=O)(=O)c2ccccc2)c(C)nn1C(C)(C)C,-49.2%,"16.4 µM [falling, partial curve]","16.4 µM [falling, partial curve]"
COC(=O)[C@H](CC(C)C)NS(=O)(=O)N(Cc1ccccc1)[C@@H](CC(C)C)C(=O)OC,-9.27%,"1.84 µM [falling, partial curve]","1.64 µM [falling, partial curve]"
O=C1c2cccnc2C(=O)N1Cc1ccc(Cl)cc1,-14.6%,"0.13 µM [falling, full curve, poor fit]",–
CCOC(=O)C1(CCOc2ccccc2)CCN(Cc2ccc3c(c2)OCCO3)CC1,-27.9%,"29.1 µM [falling, single point]",–
O=C(O)c1cccc(NC(=O)c2cc(-c3cccc(Cl)c3)nc3ccccc23)c1,1.85%,"6.51 µM [falling, single point]","3.26 µM [falling, single point]"
COC(=O)c1c(C)nc2c(c(SC)nn2-c2ccccc2)c1N,-27.6%,–,–
CC(=O)N1CCC(C(=O)Nc2ccc3c(c2)CCC3)CC1,–,"0.651 µM [rising, single point]",–
CCCOc1ccc([C@@H]2C3CN(C(=O)OCC)CC=C3C(C#N)=C(N)C2(C#N)C#N)cc1OC (some centres not stated),69.5%,"0.92 µM [rising, partial curve]","1.03 µM [rising, full curve]"
Cc1cc(S(=O)(=O)N2CCCOC2CNC(=O)C(=O)NCCCN2CCOCC2)ccc1F (configuration not stated),13.5%,"1.64 µM [rising, partial curve]",–
COc1ccc(N(CC(=O)NCCSc2ccccn2)S(C)(=O)=O)cc1Cl,0.323%,"14.6 µM [rising, single point]",–
CN(CC(=O)Nc1ccc(Cl)c(Cl)c1)C(=O)c1cccc2cccnc12,-1.35%,"16.4 µM [falling, single point]",–
CC(C)(C)NC(=O)c1cccc(NC(=O)c2ccc(NC(=O)c3ccco3)cc2)c1,-23.8%,–,–
O=C(Cc1cccs1)Nc1nncs1,–,"0.231 µM [falling, full curve]",–
c1cc2c(cc1C1=Nn3c(nnc3C3CCCCC3)SC1)OCO2,–,"0.00461 µM [rising, full curve, poor fit]","0.00651 µM [rising, full curve, poor fit]"
O=C(CCC(=O)N(CC(=O)NC1CCCCC1)c1ccc(F)cc1)Nc1nccs1,14.8%,"6.51 µM [falling, single point]",–
CC(=O)NNc1cc(N2CCOCC2)nc(N2CCOCC2)n1,13.1%,–,–
Cc1noc(C)c1C(=O)N(CC(=O)NC1CCCC1)Cc1ccccc1F,-54.1%,"1.84 µM [falling, partial curve]","1.03 µM [falling, partial curve]"

SMILES,cell number change,AC50 [1],AC50 [2]
O=C1c2ccccc2C(=O)C1c1ccccc1F,15.3%,–,–
S=C(Nc1ccc(Cl)cc1Cl)Nn1cnnc1,2.93%,"0.291 µM [rising, full curve, poor fit]","0.366 µM [rising, full curve, poor fit]"
COC(=O)c1sc(S(=O)(=O)NCCC(=O)O)c(C(=O)OC)c1C,50.2%,–,–
Cc1cc2oc(=O)cc(CSc3nc(N)cc(N)n3)c2cc1C,80.3%,"2.31 µM [rising, partial curve]","2.31 µM [rising, full curve]"
Cc1cc(-c2csc(N)n2)c(C)n1CCC(C)C,35.4%,"6.51 µM [falling, single point]","8.2 µM [rising, partial curve, poor fit]"
O=c1oc(-c2ccccc2NS(=O)(=O)c2ccccc2)nc2ccccc12,31.7%,"0.366 µM [rising, partial curve]","0.92 µM [rising, full curve, poor fit]"
O=C(NCCC1=CCCCC1)C1CCCN(S(=O)(=O)c2cccc3cccnc23)C1 (configuration not stated),-2.28%,–,–
Nc1cccnc1Oc1ccc(F)cc1,36.7%,–,"0.0058 µM [rising, full curve, poor fit]"
O=C(CN1CCc2cc3c(cc2C1)OCCCO3)Nc1c(F)cccc1F,-2.65%,–,–
NC(=O)C1CCN(Cc2nc3c(Br)cc(Br)cc3c(=O)[nH]2)CC1,60.4%,"29.1 µM [rising, single point]","18.4 µM [rising, single point]"
CO[C@@]12[C@H](COC(N)=O)C3=C(C(=O)C(C)=C(N)C3=O)N1C[C@@H]1N[C@@H]12,-35.9%,"1.16 µM [falling, full curve]","1.3 µM [falling, full curve, poor fit]"
NC(=O)c1ccc(NC(=O)CS(=O)(=O)c2cn(CC(=O)N3CCCCC3)c3ccccc23)cc1,27.2%,"6.51 µM [rising, single point]",–
CCOc1ccc(NC(=O)CS(=O)(=O)c2cn(C)c3ccccc23)cc1,1.72%,"6.51 µM [rising, single point]","6.51 µM [rising, single point]"
CN(C)S(=O)(=O)c1ccc(C(=O)OCC(=O)NCc2ccco2)cc1,-21.6%,–,–
CCn1c(SCC(=O)Nc2ccc(N(C)C)cc2)nnc1C1CC1,11.2%,"1.16 µM [falling, single point]",–
CCCNC(=O)COC(=O)c1ccccc1OCC(=O)Nc1ccc(Br)cc1,27.7%,"0.92 µM [rising, full curve]",–
COc1ccc(C)cc1Nc1nc(-c2ccccc2O)nc2ccccc12,10.7%,–,–
O=C(NCCCCc1ccccc1)C1CC(c2cccc([N+](=O)[O-])c2)=NO1 (configuration not stated),-22.6%,"0.146 µM [falling, full curve, poor fit]",–
Cc1ccc(C(C(=O)NC2CCCCC2)N(C(=O)c2csnn2)C2CCCC2)o1 (configuration not stated),-59%,"2.91 µM [falling, full curve]","16.4 µM [falling, partial curve]"
CC1CCc2c(sc3ncnc(N4CCOCC4)c23)C1 (configuration not stated),-25.8%,"29.1 µM [rising, single point]",–

SMILES,cell number change,AC50 [1],AC50 [2]
CCOc1ccc(C(C)=O)cc1CN1C(=O)NC2(CCCCCCC2)C1=O,103%,–,"0.146 µM [rising, full curve, poor fit]"
CCN(CC(=O)Nc1ccc(NC(C)=O)cc1)C(=O)c1ccccc1Sc1ccccc1C#N,-22.3%,"20.6 µM [rising, partial curve, poor fit]",–
CCOC(=O)C1CCN(S(=O)(=O)c2ccc3c(c2)CC(=O)N3)CC1,1.73%,"16.4 µM [falling, single point]",–
O=C(NCc1ccccc1CN1CCCC1)c1cccc(S(=O)(=O)N2CCOCC2)c1,5.48%,"6.51 µM [rising, single point]",–
CCOC(=O)C1CCCN(Cc2nc(CC3CC3)no2)C1 (configuration not stated),-4.95%,"29.1 µM [rising, single point]",–
Cc1cc(OCC(=O)NC2CC2)c2c(C)c(C)c(=O)oc2c1,1.32%,–,–
CCn1cc([N+](=O)[O-])c(C(=O)N2CCN(C(=O)c3ccco3)CC2)n1,-15%,"0.326 µM [rising, full curve, poor fit]",–
CC(=O)C(Cl)C(=O)Nc1ccccc1 (configuration not stated),-15%,–,–
CC(=O)c1cccc(NS(=O)(=O)c2csc(C(N)=O)c2)c1,-19.9%,"0.146 µM [falling, full curve]",–
CC(C)c1ccc(-n2nnnc2SCC(=O)NC2CC2)cc1,-38.2%,"29.1 µM [falling, single point]","23.1 µM [falling, partial curve, poor fit]"
CCOC(=O)c1ccc(NC(=O)CSc2nnc(CC)o2)cc1,31.9%,"20.6 µM [rising, single point]","0.731 µM [rising, partial curve]"
CN(C(=O)CSc1nc(-c2ccccc2)cn1N)C(c1ccccc1)c1ccccc1,-11.2%,"0.651 µM [rising, full curve]",–
O=C(Nc1nccs1)c1cccc(S(=O)(=O)N2CCCCC2)c1,3.51%,"4.11 µM [rising, single point]",–
CCCC1(c2ccccc2)NC(=O)N(CC(=O)Nc2ccccc2C(F)(F)F)C1=O (configuration not stated),-22.1%,–,–
Cc1ccc(S(=O)(=O)NCCc2nc3ccccc3[nH]2)cc1,–,"6.51 µM [rising, partial curve, poor fit]",–
O=C(CSc1ncc(-c2ccccc2)nn1)NCc1ccco1,179%,"18.4 µM [rising, partial curve]","18.4 µM [rising, partial curve]"
Cc1noc(C(=O)N(C)c2ccccc2)c1Cl,-1.39%,"10.3 µM [falling, partial curve]",–
COc1ccc(N2CCN(CC(=O)N3N=CCC3c3ccccc3)CC2)cc1 (configuration not stated),34.1%,–,–
COc1ccc(N(C)S(=O)(=O)c2cccc(C(=O)N3CCN(S(=O)(=O)c4ccc(C)cc4)CC3)c2)cc1,-14.8%,–,–
Cc1ccc(NC(=O)CCSc2nnc3ccccn23)cc1,-14.6%,"29.1 µM [falling, single point]",–
